This assay can be described thus: IkB Signaling. The note with it: ABC-DLBCL IkBa-CBG/CBR dual luciferase ratio (green luciferase fused to IkBa over red control in OCI-Ly3 lymphoma cells), 4 h. The procedure, abridged: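 Curves were fitted separately to fusion (green), unfused (red) and ratio luminescence, then classed by r2, magnitude and activity. Cells: OCI-Ly3, 4 h compound plus doxycycline at 37C; 10 uM MG-132 defined full response.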
The mark [1] stands for this setting: measured here: control luc red channel unless noted.
Where [2] appears, read: measured here: IkB-luc green channel.
Where [3] appears, read: measured here: control luc red channel.

The other results are listed elsewhere or left out. The main result of the screen is listed elsewhere. These columns were measured beside it and carry no call. The list favours compounds with an active or inconclusive main result. Words in brackets tell the shape of the fitted curve; partial curves, single points and poor fits give uncertain potencies.

AC50 data for 39 compounds are collected here from PubChem BioAssay AID445 (National Center for Advancing Translational Sciences (NCATS), 2006).

In the case of `COc1ccccc1CNC(=O)C1CCN(C(=O)c2sccc2-n2cccc2)CC1`, the AC50 under setting [1] was 39.8 µM [falling, single point].
Turning to `COc1ccccc1CNC(=O)c1cc2c(-c3ccc(Cl)cc3)nn(C)c2s1`, the AC50 under setting [1] was 3.98 µM [falling, full curve, poor fit].
`COCCOC(=O)c1c(C)oc2ccc(OCc3cc(C(=O)OC)oc3C)cc12`: under setting [1], the AC50 was 25.1 µM [falling, single point].
Same read-out and setting: the figure for `O=C(CN(c1ccc(Cl)c(C(F)(F)F)c1)S(=O)(=O)c1ccccc1)Nc1cccnc1` is 31.6 µM [falling, partial curve].
Turning to `CCc1ccccc1NC(=O)CSc1nnc(-c2ccccc2)c(-c2ccccc2)n1`, the AC50 under setting [1] was 12.6 µM [falling, partial curve].
Take `CCC1Oc2nc(SC)nnc2-c2ccccc2N1C(=O)c1ccccc1` (stereo unspecified): the AC50 under setting [1] is 1.58 µM [falling, full curve].
`COc1cc(OC)cc(-c2cc3nc(C)c(CCC(=O)Nc4ccccc4OC)c(C)n3n2)c1`: under setting [1], the AC50 is 10 µM [falling, partial curve].
Same read-out and setting: the figure for `CCc1ccc2[nH]c(=O)c(CN(Cc3ccc(OC)cc3)Cc3nnnn3CCOC)cc2c1` is 39.8 µM [falling, single point]; for `Cc1ccc(C(C)C)c(OCCn2c(=O)oc3ccccc32)c1` it is 20 µM [falling, partial curve]; for `COCCNC(=O)Cn1c(=O)c2cccn2c2ccc(F)cc21` it is 15.8 µM [falling, single point].
Still for that read-out and setting: the figure for `CN(Cc1ccccc1)S(=O)(=O)c1ccc2c(c1)n(C)c(=O)n2C` is 25.1 µM [falling, partial curve]; for `Cc1cc(C)cc(Oc2nc3ccccn3c(=O)c2/C=C(\C#N)c2nc3ccccc3s2)c1` it is 6.31 µM [falling, single point]; for `Cn1c(=O)cc(SCC(=O)N2CCN(c3ccccc3F)CC2)c2ccc(Cl)cc21` it is 15.8 µM [falling, partial curve].
With `Cc1ccccc1OCCSc1nc2ccc(NC(=O)c3cccs3)cc2s1`, the AC50 under setting [1] is 15.8 µM [falling, partial curve].
As for `CCn1nc(-c2ccccc2)c(-c2ccccc2)c(C(=O)Nc2ccc(NC(C)=O)cc2)c1=O`, the AC50 under setting [1] was 20 µM [falling, partial curve].
As to `Cc1ccc(-c2csc(=Nc3ccccc3)n2Cc2ccc3c(c2)OCO3)cc1`, the AC50 under setting [1] was 12.6 µM [falling, partial curve].
Turning to `CCOC(=O)C1CCCN(C(=O)Cn2ncc3c4ccccc4n(Cc4ccccc4)c3c2=O)C1` (stereo unspecified), under setting [1], the AC50 is 20 µM [falling, single point].
The same measure, in the same setting: the figure for `COc1ccccc1NC(=O)c1cc2c(C)nn(-c3ccccc3)c2s1` is 31.6 µM [falling, single point]; for `COc1ccc(NC(=O)c2sc3nc(C(F)(F)F)cc(C)c3c2N)cc1OC` it is 39.8 µM [rising, partial curve]; for `Cc1ccc(NC(=O)c2nc(S(C)(=O)=O)ncc2N(Cc2ccco2)Cc2cccs2)cc1C` it is 7.94 µM [falling, partial curve].
`Cc1cccc(NC(=O)CCNS(=O)(=O)c2ccc3c(c2)CCN3C(=O)C2CC2)c1`: the AC50 under setting [1] was 0.2 µM [falling, full curve, poor fit].
For the compound `Cc1ccc(NC(=O)Cn2cc(C(=O)C3CCCCC3)c3ccccc32)cc1`, the AC50 under setting [1] is 15.8 µM [falling, partial curve].
The same measure, in the same setting: the figure for `CCOc1ccc(-c2cc(CCCC(=O)NCCc3cc(OC)c(OC)c(OC)c3)no2)cc1` is 3.98 µM [falling, partial curve]; for `CCOc1ccc(NC(=O)Cn2c(=O)n(CCCS(=O)(=O)C3CCCCC3)c(=O)c3ccccc32)cc1` it is 39.8 µM [falling, single point]; for `COC(=O)c1c(C)oc2ccc(N(C(=O)c3ccncc3)S(=O)(=O)c3cc(C)ccc3C)cc12` it is 7.94 µM [falling, partial curve].
On to `Cc1ccc(C(=O)Nc2ccccc2)cc1S(=O)(=O)Nc1ccccc1`, for which the AC50 under setting [1] is 39.8 µM [falling, single point].
Turning to `O=S(=O)(/N=S1/CC=CCN1S(=O)(=O)c1ccccc1)c1ccccc1` (stereo unspecified), the AC50 was 39.8 µM [rising, single point] under setting [2] and 39.8 µM [rising, single point] under setting [3].
For `Cc1ccc(-n2ncc3c(N4CCC(Cc5ccccc5)CC4)ncnc32)cc1C`, the AC50 under setting [1] was 12.6 µM [falling, partial curve].
Consider `COCCCn1c(-c2ccc(S(=O)(=O)N3CCOCC3)cc2)csc1=Nc1ccccc1`, for which the AC50 under setting [1] is 10 µM [falling, partial curve].
On the same count and under the same terms, the figure for `O=C(NCCN1CCCCC1)c1ccc(Cn2c(SCc3ccccc3)nc3cccnc32)cc1` is 25.1 µM [falling, single point]; for `COc1ccc(CNC(=O)c2cc3sccc3n2Cc2ccc(C)cc2)cc1` it is 25.1 µM [falling, partial curve].
Consider `Nc1nnnn1/N=C/C(Br)=C/c1ccccc1`, for which the AC50 reads like this: under setting [2], 0.631 µM [rising, full curve, poor fit]; under setting [3], 6.31 µM [falling, partial curve].
Take `Cc1ccc(NC(=O)C2CCN(c3nc(-c4ccc(C(C)C)cc4)no3)CC2)c(Cl)c1`: the AC50 under setting [1] is 15.8 µM [falling, partial curve].
As to `Cc1nn(Cc2ccc(Cl)cc2Cl)c(C)c1NC(=O)c1nc2n(n1)C(C(F)F)CC(C)N2` (stereo unspecified), the AC50 under setting [1] is 12.6 µM [falling, partial curve].
For `Cc1ccc2c(CNCc3ccc(C)o3)c(C(=O)O)n(Cc3ccc(F)cc3)c2c1`, the AC50 under setting [1] was 25.1 µM [falling, partial curve].
For the compound `O=C(c1ccc2c(c1)N(Cc1ccc(Cl)cc1)C(=O)c1ccccc1S2=O)N1CCCCC1` (stereo unspecified), the AC50 under setting [1] is 25.1 µM [falling, partial curve].
As to `O=C(CSc1ccccc1)N1CCc2c([nH]c3ccccc23)C1c1ccc(Cl)cc1` (stereo unspecified), the AC50 under setting [1] was 6.31 µM [falling, partial curve].
Still for that read-out and setting: the figure for `COc1ccc(NC(=O)Cn2nc3c(cc2=O)CCCC3)cc1Cl` is 0.1 µM [rising, single point].
Take `O=C(NCc1ccc(Cl)cc1)c1cc2ccc3cccnc3c2[nH]1`: the AC50 under setting [1] is 31.6 µM [falling, partial curve, poor fit].
